Assay results published in PubChem BioAssay AID652054 (National Center for Advancing Translational Sciences (NCATS), 2013).
Screen size: about 360,000 compounds; about 9,100 (2.5%) were called active. Inconclusive means that the source gave no clear call. Such entries were picked first, then a sample of the others. No stated cut-off is given here; in the data, active means max response below about -50%; inconclusive means no clear call, values can overlap the other calls; inactive means above that.

By UniProt entry, the sequences of proteins in these tests, tags left out.
UniProt P35462, whole entry, looked up: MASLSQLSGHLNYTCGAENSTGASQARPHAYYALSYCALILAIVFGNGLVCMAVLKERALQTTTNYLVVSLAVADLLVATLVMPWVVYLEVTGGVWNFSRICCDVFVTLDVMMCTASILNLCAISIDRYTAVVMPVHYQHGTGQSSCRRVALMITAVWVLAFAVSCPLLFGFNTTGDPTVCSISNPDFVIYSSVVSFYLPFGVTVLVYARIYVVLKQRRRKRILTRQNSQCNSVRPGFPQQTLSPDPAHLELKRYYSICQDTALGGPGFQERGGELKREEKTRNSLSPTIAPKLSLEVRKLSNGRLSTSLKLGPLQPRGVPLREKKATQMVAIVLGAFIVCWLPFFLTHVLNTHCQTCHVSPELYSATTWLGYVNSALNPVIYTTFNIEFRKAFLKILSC

Target: D(3) dopamine receptor (Homo sapiens) (UniProt P35462)
Test: qHTS of D3 Dopamine Receptor Antagonist: qHTS
Details: D3R cells, DiscoveRx beta-arrestin luminescence, antagonist mode; hits give low values
Procedure, shortened: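 Cells plated overnight at 1500 cells/well, then exposed to library compounds with dopamine controls for 90 minutes at 37 degrees C. DiscoveRx reagent added for 30–60 minutes at room temperature; luminescence read, quantitative HTS format.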
On the % scale 0 is the no-effect control and ±100 the full control effect.

| Compound | max response, negative = inhibition |
| --- | --- |
| N#CC(c1cccc([N+](=O)[O-])c1)C(CC(=O)c1ccccc1)c1ccccc1 (stereo not drawn) | inconclusive: -35.6% |
| CC(=O)Cc1nsc(NC(=O)c2ccc(Br)o2)n1 | inactive: 8.64% |
| Cc1ccc2sc(N(CCCN(C)C)C(=O)CCS(=O)(=O)c3ccccc3)nc2c1C | inconclusive: -43.3% |
| CCn1c(C2CC(=O)N(c3ccc(C)c(C)c3)C2)nc2ccccc21 (stereo not drawn) | inconclusive: -36% |
| CCCCn1nnnc1C1(C)CCC(=O)N1C1CC1 (stereo not drawn) | inconclusive: -37.2% |
| COC(=O)c1cccc(S(=O)(=O)N2CCOCC2)c1 | inconclusive: -39.4% |
| OC(c1ccc(-c2ccccc2)cc1)c1ncc(-c2ccccc2)[nH]1 (stereo not drawn) | inactive: -5.77% |
| CCOC(=O)c1ccc(S(=O)(=O)NNc2ccc(C(F)(F)F)cn2)cc1 | inactive: 18% |
| CN1CCC(C2(O)c3ccccc3CSc3sccc32)CC1 (stereo not drawn) | active: -66.6% |
| O=c1oc2cc(Oc3ccc(C(F)(F)F)cc3[N+](=O)[O-])ccc2c2c1CCC2 | inactive: -2.51% |
| COC(=O)CCC(=O)OC1(C)C(=O)C2=CN(CC3CC3)C(c3ccc(OC)cc3)=CC2=C(Br)C1=O (stereo not drawn) | inconclusive: -46.4% |
| CC(C)(C)c1cnnn1-c1ccc(C(=O)CCl)cc1 | inconclusive: -30.7% |
| CCOC(=O)CCc1c(C)nc2cc(-c3ccc(F)cc3)[nH]n2c1=O | inconclusive: -41.8% |
| Cc1ccc(NC(=O)C2C3C=CC4(O3)C2C(=O)N(CCCN2CCCCC2)C4C(=O)NC2CCCCC2)cc1Cl (stereo not drawn) | inconclusive: -33.5% |
| CCc1ccc(S(=O)(=O)Nc2c(C)nn(C)c2C)cc1 | inactive: -15.3% |
| Cc1nn(CC(=O)N2CCC(N3CCCCC3)CC2)c(=O)c2c1sc1ccccc12 | inactive: -12.5% |
| Cc1cccc(NC(=O)c2nc[nH]c2C(=O)N2CCC(C)CC2)c1 | inconclusive: -44.1% |
| O=C(NNC1=Nc2ccccc2SC1)c1ccc(Cl)cc1 | active: -72.8% |
| CCCCN1C(=O)C(CC(=O)NCCc2ccccn2)CC(C(=O)N(C(C)C)C(C)C)=C1C (stereo not drawn) | inactive: 1.79% |
| CC(C)c1nnc(SCC(=O)NC(C)(C)C)n1C | inactive: -7.32% |
| N#Cc1ccc(C(=O)Nc2nc(-c3cccs3)c(C(=O)C(F)(F)F)s2)cc1 | active: -58.8% |
| COc1ccc(Nc2ccc(N3C(=O)CCCC3=O)cc2[N+](=O)[O-])c(OC)c1 | inconclusive: -30.9% |

| Compound | max response, negative = inhibition |
| --- | --- |
| O=C(NCCCN1CCOCC1)c1cc(-c2ccccc2)on1 | inconclusive: -37.5% |
| S=c1nc(-c2ccccc2)[nH]n1-c1ccccc1 | inactive: 2.95% |
| CCc1ccc(N2CC(C(=O)Nc3cc(C)on3)CC2=O)cc1 (stereo not drawn) | inconclusive: -35.3% |
| CCOC(=O)C1(C(C)(C)CC)CC(CSc2nc3ccccc3[nH]2)OC1=O (stereo not drawn) | inconclusive: -36.1% |
| Cc1nn(C)cc1NC(=O)c1ccc(Br)o1 | inconclusive: -36.3% |
| CN1CCS/C1=C\C=C1/SC(=S)N(CC(=O)O)C1=O | active: -68.3% |
| CC[C@H](C)[C@@H](CN[C@H](CCCCNC)CNC)NCC1CCCC1 | inactive: -25.1% |
| COc1ccc2oc(=O)c(C(=O)Nc3cccc(C)c3)cc2c1 | inactive: 38.3% |
| O=c1[nH]c(=S)[nH]c2sccc12 | inconclusive: -38.3% |
| Cc1ccc(CN2CCN(/N=C/C=C/c3ccccc3[N+](=O)[O-])CC2)cc1 | inconclusive: -34.8% |
| Cc1cccc(CC(C)NC(=O)c2cc(COc3ccc(C)c(C)c3)on2)n1 (stereo not drawn) | inconclusive: -31.4% |
| COc1ccc(-c2cc(-n3c(C(F)(F)F)nc4ccccc43)n(CCC#N)n2)cc1 | inconclusive: -38.5% |
| CCN1C(=O)/C(=C/c2cc(C)n(C)c2C)SC1=Nc1ccc(OC)cc1 | inactive: 6% |
| COc1ccc(-c2csc3[nH]c(=S)n(-c4ccccc4)c(=O)c23)cc1OC | inactive: 8.94% |
| COc1ccc(CNC(=O)c2cc(-c3ccccc3OC)on2)cc1 | active: -62.7% |
| COc1ccccc1N1CCN(C(=O)C(=O)c2c[nH]c3ccccc23)CC1 | inactive: -19.3% |
| O=C1c2ccccc2C(=O)c2c(NCCCN(CCO)CCO)cccc21 | inconclusive: -36.9% |
| Cc1ccc(S(=O)(=O)NCc2nnnn2-c2ccc(F)cc2)cc1 | inactive: 15.8% |
| Cc1csc(NC(=O)c2cc(-c3ccco3)nc3ccccc23)n1 | inactive: 1.41% |
| COc1ccc(C(=O)NN)cc1 | inactive: 4.23% |
| COc1ccc(CCNC(=O)CSCc2ccc([N+](=O)[O-])cc2)cc1OC | inconclusive: -44.4% |
| CCOc1ccc2oc(=O)cc(CN3CCN(Cc4ccccc4)CC3)c2c1 | inactive: 0.646% |

| Compound | max response, negative = inhibition |
| --- | --- |
| Cc1ccc(-n2nc3c(=O)n(CC(=O)NCCc4ccc(Cl)cc4)nc(C)c3c2C)cc1 | inconclusive: -35.7% |
| COc1ccc(N2CCN(CC(O)COc3ccc(C)c(C)c3)CC2)cc1 (stereo not drawn) | inconclusive: -42.5% |
| Cc1ccsc1CN1CCN(c2ccccn2)CC1 | inconclusive: -30% |
| O=C(c1nc2ccc(Cl)cn2c1CNCC[C@@H]1C[C@@H]2C=C[C@H]1C2)N1CCCCCCC1 | inconclusive: -32.1% |
| Cc1ccc(S(=O)(=O)N2CCN(C(=O)CSc3ccccn3)CC2)c(C)c1 | inactive: -15.5% |
| CCc1sc(-c2c(C#N)c(N)nc3c2CCCCCC3)cc1[N+](=O)[O-] | inactive: 16% |
| Cc1cc(C)c(S(=O)(=O)ON2C(=O)c3ccccc3C2=O)cc1C | inconclusive: -40.3% |
| COc1ccc(-c2nnc(SCC(=O)NC3CCCc4ccccc43)n2N)cc1 (stereo not drawn) | inconclusive: -43% |
| CCCNC(=S)Nc1ccc(Cl)cc1C | inactive: -8.05% |
| O=C(c1cccs1)N1C[C@@H](O)[C@H](n2cc(-c3ccc(F)cc3)nn2)C[C@@H]1c1ccc(Cl)cc1 | inconclusive: -43% |
| CC(=O)c1c(-c2ccccc2)c2cc(Cl)ccc2[nH]c1=O | inconclusive: -33.8% |
| COc1ccc([C@H]2CC(=O)C=C(c3ccc(OC)c(F)c3)C2)cc1 | inconclusive: -33.1% |
| CCOC(=O)CSc1nc2cc(C(=O)OC)ccc2c(=O)n1CCN1CCOCC1 | inactive: -3.95% |
| O=C(/C=C/c1cc2c(cc1Br)OCO2)NCc1ccc(Cl)cc1 | inconclusive: -32% |
| CC(=O)c1cccc(NC(=O)Nc2cccs2)c1 | active: -51.4% |
| OCC1OC(n2cnc3c(SCc4ccccc4)ncnc32)C(O)C1O (stereo not drawn) | inactive: -3.07% |
| O=C1C=C(c2ccc(CO)cc2)C[C@@H](c2ccc3c(c2)OCO3)C1 | active: -50.8% |
| Cc1nc(C(F)(F)F)ccc1C(=O)N1CCC1(C)C(=O)NS(=O)(=O)c1ccc(Cl)cc1 (stereo not drawn) | inconclusive: -38% |
| Cc1nc2cc(NC(=O)Nc3cccc([N+](=O)[O-])c3)ccc2n1C | inconclusive: -34.5% |
| Cc1cccc2c1-c1sc(C(=O)NCCCN3CCC(C)CC3)cc1CO2 | active: -95.3% |
| Cc1ccc[n+](CC(=O)/C=C2\N(C)c3ccccc3C2(C)C)c1 | inactive: 0.936% |
| O=C(Cc1ccc(F)cc1)Nc1nc(-c2ccc(F)cc2)cs1 | inactive: 23.1% |

Arranged by number of heavy atoms (low to high): some entries from above

| Compound | max response, negative = inhibition |
| --- | --- |
| CCCNC(=S)Nc1ccc(Cl)cc1C | inactive: -8.05% |
| Cc1ccsc1CN1CCN(c2ccccn2)CC1 | inconclusive: -30% |
| CCn1c(C2CC(=O)N(c3ccc(C)c(C)c3)C2)nc2ccccc21 (stereo not drawn) | inconclusive: -36% |

(next part)

| Compound | max response, negative = inhibition |
| --- | --- |
| Cc1c(Cl)cccc1NC(=O)CCN1CCCC(C)C1 (stereo not drawn) | inconclusive: -48.5% |
| Nc1ccn(CC(=O)NCc2ccccc2)c(=O)n1 | inactive: -10.6% |
| CC(=O)C1=C(c2cccc([N+](=O)[O-])c2)N(C(C)=O)n2c(C)nnc2S1 | inconclusive: -37% |
| O=C(NC(Cc1ccccc1)C(=O)O)/C(=C\c1ccco1)NC(=O)c1ccccc1 (stereo not drawn) | inconclusive: -35.2% |
| Cc1ccc(NC(=S)N/N=C/c2c(Cl)cccc2Cl)c(C)c1 | active: -59.6% |
| O=C(CSC1=NS(=O)(=O)c2ccccc2N1)Nc1ccccc1F | inconclusive: -39.4% |
| CC(=O)Oc1cccc2c1C(=O)c1c(OC(C)=O)cc(C(=O)O)cc1C2=O | active: -122% |
| COCCCN1C(=O)C(CC(=O)NCc2cccc3ccccc23)CC(C(=O)N2CCOCC2)=C1C (stereo not drawn) | inconclusive: -36.6% |
| COc1ccc(OC)c(-n2c(-c3cc(-c4ccc(F)cc4)n[nH]3)n[nH]c2=S)c1 | active: -80.8% |
| C=CCSc1ncccc1C(=O)NCc1ccccc1 | inconclusive: -38.4% |
| O=C(CCN1CCN(C(c2ccccc2)c2ccccc2)CC1)N/N=C/c1ccc(O)cc1 | inconclusive: -41.7% |
| CCSC1=N/C(=C\c2ccc(C(=O)O)cc2)C(=O)S1 | inactive: -17.9% |
| C=CC[C@@H](CC(=O)N[C@H](CO)Cc1ccccc1)C(=O)N[C@H](COC(=O)[C@@H](CC=C)Cc1ccc(F)cc1)C(C)(C)C | inconclusive: -30.2% |
| CC(CN(C)Cc1ccccc1)OC(=O)c1ccc(F)cc1 (stereo not drawn) | active: -69.2% |
| CN1CCN(c2ccc(-c3cc(NC=O)c4ncc(-c5ccc(F)cc5)n4c3)cc2)CC1 | inconclusive: -36.4% |
| CCOC(=O)C(C)N1C(=O)S/C(=C/c2cc(C)n(-c3ccncc3)c2C)C1=O (stereo not drawn) | inactive: 43.4% |
| N#Cc1ccc(NC(=O)COC(=O)c2cccnc2Cl)cc1 | inconclusive: -41.3% |
| COc1ccc(-n2cnnc2SCC(=O)N2CCN(c3ccccc3)CC2)cc1 | inactive: -25% |
| O=C1CC(C(=O)N2CCN(c3ccc(F)cc3)CC2)CN1CCc1ccccc1 (stereo not drawn) | inconclusive: -35.3% |
| N#C/C(=C(/O)c1ccc2c(c1)OCO2)c1nc2cc(C(F)(F)F)ccc2s1 | inconclusive: -44.9% |
| S=C(Nc1ccc(Br)cc1Cl)NC1CCN(Cc2ccccc2)CC1 | inconclusive: -47.1% |
| O=C(O)CN1C(=O)/C(=C\c2cc(Br)ccc2OCc2ccc(Cl)cc2)SC1=S | inactive: 3.82% |
